Patent US20100255006A1
These are yes or no findings as the source states them, for the method shown. Some results given as binding are weak or reduced against the parent protein; the word gives no strength.

Protein sequences, listed by entry. Tags and fused reporters are not part of them. Residues count along the entry.
UniProt Q9ULZ3, residues 107-195: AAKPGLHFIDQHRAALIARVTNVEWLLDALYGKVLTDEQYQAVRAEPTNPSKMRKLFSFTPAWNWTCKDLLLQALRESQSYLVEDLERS

Target: CARD of CARD-5 (mammalian two-hybrid construct) (UniProt Q9ULZ3)
Assay: mammalian two-hybrid in 293T cells, luciferase reporter

binding: binds
B1: CARD of CARD-12 (mammalian two-hybrid construct) (protein, UniProt Q9NPP4 1-88, looked up, not shown: large carriers)
chain: MNFIKDNSRALIQRMGMTVIKQITDDLFVWNVLNREEVNIICCEKVEQDAARGIIHMILKKGSESCNLFLKSLKEWNYPLFQDLNGQS
